In the assay the target is human FVIII expressed in H9 CHO cells (human) (UniProt P00451). The experiment in a line: affinity purification with mass spectrometry.

By UniProt entry, the sequences of proteins in these tests, tags left out. Residues count along the entry.
UniProt P00451, residues 20-2351: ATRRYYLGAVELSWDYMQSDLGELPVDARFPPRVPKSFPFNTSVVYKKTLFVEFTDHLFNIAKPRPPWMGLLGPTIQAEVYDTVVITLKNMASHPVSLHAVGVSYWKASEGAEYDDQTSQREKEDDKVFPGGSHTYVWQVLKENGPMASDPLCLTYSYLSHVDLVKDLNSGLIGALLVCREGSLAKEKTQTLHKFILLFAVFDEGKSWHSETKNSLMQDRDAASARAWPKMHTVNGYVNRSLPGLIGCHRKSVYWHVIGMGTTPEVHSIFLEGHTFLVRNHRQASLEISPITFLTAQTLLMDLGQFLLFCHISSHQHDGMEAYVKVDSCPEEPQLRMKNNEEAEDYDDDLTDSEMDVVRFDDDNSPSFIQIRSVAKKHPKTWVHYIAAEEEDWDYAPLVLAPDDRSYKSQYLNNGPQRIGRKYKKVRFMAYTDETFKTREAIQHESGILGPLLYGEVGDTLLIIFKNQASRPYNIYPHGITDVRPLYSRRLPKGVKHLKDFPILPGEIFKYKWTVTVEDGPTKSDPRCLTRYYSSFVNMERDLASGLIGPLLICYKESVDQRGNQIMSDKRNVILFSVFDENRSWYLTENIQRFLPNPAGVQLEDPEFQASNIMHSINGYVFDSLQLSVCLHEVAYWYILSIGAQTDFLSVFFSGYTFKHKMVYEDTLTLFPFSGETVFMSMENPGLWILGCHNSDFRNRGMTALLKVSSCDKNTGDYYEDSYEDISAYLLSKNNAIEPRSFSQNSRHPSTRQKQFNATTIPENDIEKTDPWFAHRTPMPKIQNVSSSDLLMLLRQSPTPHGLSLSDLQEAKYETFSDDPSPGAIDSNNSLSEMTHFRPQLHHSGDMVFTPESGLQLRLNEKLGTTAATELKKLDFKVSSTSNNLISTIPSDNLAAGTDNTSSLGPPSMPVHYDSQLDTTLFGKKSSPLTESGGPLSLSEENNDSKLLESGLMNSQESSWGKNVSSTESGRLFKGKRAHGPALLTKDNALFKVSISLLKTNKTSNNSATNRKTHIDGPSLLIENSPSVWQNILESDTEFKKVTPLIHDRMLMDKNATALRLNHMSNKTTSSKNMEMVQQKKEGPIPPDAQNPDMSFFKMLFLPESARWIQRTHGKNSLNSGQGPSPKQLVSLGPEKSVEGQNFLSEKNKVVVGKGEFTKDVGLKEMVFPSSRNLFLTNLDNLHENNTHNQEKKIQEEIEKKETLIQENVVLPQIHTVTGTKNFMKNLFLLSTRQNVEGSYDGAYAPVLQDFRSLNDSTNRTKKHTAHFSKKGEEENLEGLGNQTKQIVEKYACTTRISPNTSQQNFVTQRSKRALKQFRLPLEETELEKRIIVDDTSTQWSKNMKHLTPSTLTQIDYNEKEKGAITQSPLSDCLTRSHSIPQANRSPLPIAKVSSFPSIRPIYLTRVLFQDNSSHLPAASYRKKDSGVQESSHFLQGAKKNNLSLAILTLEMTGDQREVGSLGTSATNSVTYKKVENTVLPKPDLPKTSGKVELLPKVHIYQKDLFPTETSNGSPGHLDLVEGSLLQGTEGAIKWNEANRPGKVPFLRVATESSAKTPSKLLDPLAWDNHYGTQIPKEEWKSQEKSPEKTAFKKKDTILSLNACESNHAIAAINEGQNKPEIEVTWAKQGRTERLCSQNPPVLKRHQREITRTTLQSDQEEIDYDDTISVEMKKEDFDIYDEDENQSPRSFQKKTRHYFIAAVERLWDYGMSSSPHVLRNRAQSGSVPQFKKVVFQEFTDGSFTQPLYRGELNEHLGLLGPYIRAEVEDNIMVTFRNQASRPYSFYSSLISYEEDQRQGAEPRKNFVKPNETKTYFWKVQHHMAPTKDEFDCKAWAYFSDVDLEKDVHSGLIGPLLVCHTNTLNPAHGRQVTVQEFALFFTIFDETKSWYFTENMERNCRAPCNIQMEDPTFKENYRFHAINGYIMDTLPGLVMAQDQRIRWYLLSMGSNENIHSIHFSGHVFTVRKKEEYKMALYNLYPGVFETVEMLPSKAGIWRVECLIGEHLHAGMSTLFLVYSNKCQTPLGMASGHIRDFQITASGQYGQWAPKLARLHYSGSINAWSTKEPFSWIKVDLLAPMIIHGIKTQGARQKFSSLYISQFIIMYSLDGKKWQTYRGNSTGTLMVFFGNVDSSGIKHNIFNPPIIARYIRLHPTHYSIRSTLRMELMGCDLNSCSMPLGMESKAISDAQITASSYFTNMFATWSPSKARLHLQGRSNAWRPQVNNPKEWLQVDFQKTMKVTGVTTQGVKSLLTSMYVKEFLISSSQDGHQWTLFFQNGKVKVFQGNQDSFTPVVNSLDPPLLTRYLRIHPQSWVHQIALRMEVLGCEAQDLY
UniProt G3I8R9, residues 19-654: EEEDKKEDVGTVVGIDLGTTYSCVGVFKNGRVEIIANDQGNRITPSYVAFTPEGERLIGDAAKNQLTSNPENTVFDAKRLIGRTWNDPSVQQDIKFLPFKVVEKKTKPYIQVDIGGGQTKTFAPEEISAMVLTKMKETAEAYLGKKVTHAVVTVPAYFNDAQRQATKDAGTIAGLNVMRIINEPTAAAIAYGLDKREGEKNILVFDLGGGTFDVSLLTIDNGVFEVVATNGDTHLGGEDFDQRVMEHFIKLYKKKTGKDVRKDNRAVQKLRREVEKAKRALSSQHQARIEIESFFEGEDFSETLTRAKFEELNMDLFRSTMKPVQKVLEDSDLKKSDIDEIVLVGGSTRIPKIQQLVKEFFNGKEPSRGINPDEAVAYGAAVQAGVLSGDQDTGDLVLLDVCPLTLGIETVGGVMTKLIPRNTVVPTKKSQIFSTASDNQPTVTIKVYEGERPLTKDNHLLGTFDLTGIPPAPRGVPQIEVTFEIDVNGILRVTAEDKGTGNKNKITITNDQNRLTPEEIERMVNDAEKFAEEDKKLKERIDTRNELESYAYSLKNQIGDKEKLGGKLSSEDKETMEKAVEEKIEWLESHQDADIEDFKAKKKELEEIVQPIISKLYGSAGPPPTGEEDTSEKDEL
UniProt Q8K3H7, residues 18-417: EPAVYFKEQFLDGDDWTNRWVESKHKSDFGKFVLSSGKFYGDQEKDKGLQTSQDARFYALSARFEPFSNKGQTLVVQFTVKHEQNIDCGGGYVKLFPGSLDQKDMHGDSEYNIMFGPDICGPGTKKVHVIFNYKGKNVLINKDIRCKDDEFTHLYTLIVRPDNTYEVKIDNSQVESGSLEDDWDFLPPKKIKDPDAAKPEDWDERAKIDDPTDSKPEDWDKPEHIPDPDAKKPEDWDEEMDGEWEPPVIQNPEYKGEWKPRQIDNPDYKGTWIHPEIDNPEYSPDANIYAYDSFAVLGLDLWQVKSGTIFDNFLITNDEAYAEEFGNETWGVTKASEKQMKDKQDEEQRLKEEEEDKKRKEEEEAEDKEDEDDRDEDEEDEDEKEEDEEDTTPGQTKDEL

These are yes or no findings as the source states them, for the method shown. Binding seen in cells or lysates may run through a third protein. A yes stands for co-enrichment or nearness to the bait. Other partners may have been found.

“BiP/HSPA5 (endogenous in H9 CHO cells) (from UniProt G3I8R9 19-654)”: the binding result was “binds”.

“CRT (endogenous in H9 CHO cells) (from UniProt Q8K3H7 18-417)”: the binding result is on record as “binds”.

B1: GRP170 (endogenous in H9 CHO cells) (protein, UniProt Q60432 33-999)
chain: LAVMSVDLGSESMKVAIVKPGVPMEIVLNKESRRKTPVTVTLKENERFLGDSAAGMAIKNPKATLRYFQHLLGKQADNPHVALYRDRFPEHELNIDPQRQTVRFQISPQLQFSPEEVLGMVLNYSRSLAEDFAEQPIKDAVITVPAFFNQAERRAVLQAARMAGLKVLQLINDNTATALSYGVFRRKDINSTAQNVMFYDMGSGTTVCTIVTYQTVKTKEAGMQPQLQIRGVGFDRTLGGLEMELRLREHLAKLFNEQRRGQKAKDVRENPRAMAKLLREANRLKTVLSANADHMAQIEGLMDDVDFKAKVTRVESEELCADLFERVPGPVQQALQSAEMSLDEIEQVILVGGATRVPKVQEVLLKAVGKEELGKNINADEAAAMGAVYQAAALSKAFKVKPFVVRDAVIYPILVEFTREVEEEPGVRSLKHNKRVLFSRMGPYPQGKVITFNRYSHDFNFHINYGDLGFLGPEDLRVFGSQNLTTVKLKGVGESLKKYPDYESKGIKAHFNLDESGVLSLDRVESVFETLVEDSPEEESTLTKLGNTISSLFGGGTSSDAKENGTDAVQEEEESPTEGSKDEPGEQGDLKEETEAPVEDTSQPPPPEPKGDAAPEGEKPDEKESGGKSEAQKPEEKGQSGPEGVPPAPEEEKKQKPARKQKMVEEIGVELAVLDLPDLPEDELARSVKKLEDLTLRDLEKQEREKAANSLEAFIFETQDKLYQPEYQEVSTEEQREEISGKLSATSTWLEDEGFGATTVMLKEKLAELKKLCQGLFFRVEERRKWPERLSALDNLLNHSSIFLKGARLIPEMDQIFTEVEMTTLEKVINDTWAWKNATLAEQAKLPATEKPVLLSKDIEAKMMALDREVQYLLNKAKFTKPRPRPKDKNGTRTEPPLNATAGDQEEKVIPPAGQPEEAKPILEPDKEETTTEPTDSEPLELGGPGAESEPKEQTAGQKRSSKNDEL
Regarding B1, the binding entry was “binds”.
